Experimental data published in the supplement of paper PMC4604168 (melanoma cell lines).
The other results are listed elsewhere or left out. Single values are uncertain, as repeats are few or missing.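 Cells were imaged in 1,536-well plates, and nuclei stained with an antibody against cleaved PARP were counted against all DNA-stained nuclei to give the apoptosis fraction. Screening doses were chosen to leave most cells alive, and resting and induced cleaved-PARP levels differ strongly between cell lines.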

Tests used:
Assay in all cases: cleaved PARP positive nuclei fraction relative to DMSO control; melanoma cells; higher = more apoptosis
Settings in all cases: library dose: low library concentration; 72 h
MZ2-MEL = test system: MZ2-MEL
MeWo = test system: MeWo
RPMI7951 = test system: RPMI7951
RVH-421 = test system: RVH-421
SkMel28 = test system: SkMel28
SkMel2 = test system: SkMel2
SkMel30 = test system: SkMel30
SkMel5 = test system: SkMel5
UACC257 = test system: UACC257
UACC62 = test system: UACC62
WM115 = test system: WM115
WM1716 = test system: WM1716
WM1745 = test system: WM1745
WM3526 = test system: WM3526
WM3619 = test system: WM3619
WM451Lu = test system: WM451Lu

| SMILES | cleaved PARP positive nuclei fraction (MZ2-MEL) [%] | cleaved PARP positive nuclei fraction (MeWo) [%] | cleaved PARP positive nuclei fraction (RPMI7951) [%] | cleaved PARP positive nuclei fraction (RVH-421) [%] | cleaved PARP positive nuclei fraction (SkMel28) [%] | cleaved PARP positive nuclei fraction (SkMel2) [%] | cleaved PARP positive nuclei fraction (SkMel30) [%] | cleaved PARP positive nuclei fraction (SkMel5) [%] | cleaved PARP positive nuclei fraction (UACC257) [%] | cleaved PARP positive nuclei fraction (UACC62) [%] | cleaved PARP positive nuclei fraction (WM115) [%] | cleaved PARP positive nuclei fraction (WM1716) [%] | cleaved PARP positive nuclei fraction (WM1745) [%] | cleaved PARP positive nuclei fraction (WM3526) [%] | cleaved PARP positive nuclei fraction (WM3619) [%] | cleaved PARP positive nuclei fraction (WM451Lu) [%] |
| --- | --- | --- | --- | --- | --- | --- | --- | --- | --- | --- | --- | --- | --- | --- | --- | --- |
| Nc1ncn([C@H]2C[C@H](O)[C@@H](CO)O2)c(=O)n1 [decitabine] + O=C1NC(=O)/C(=C/c2ccc(-c3ccc(F)cc3O)o2)S1 [AS252424] (first compound 0.1 µM, partner dose 1 µM) | 105 | 93.9 | 167 | 146 | 138 | 64.1 | 48.8 | 69.3 | 122 | 90.8 | 197 | 60.8 | 100 | 72.1 | 127 | 43.4 |
| CNC(=O)c1cc(Oc2ccc(NC(=O)Nc3ccc(Cl)c(C(F)(F)F)c3)cc2)ccn1 [sorafenib] + COc1cc2c(Oc3ccc4[nH]c(C)cc4c3F)ncnc2cc1OCCCN1CCCC1 [cediranib] (first compound 0.4 µM, partner dose 0.4 µM) | 26.4 | 130 | 205 | 36.2 | 128 | 76.3 | 72.2 | 223 | 83 | 70.1 | 101 | 156 | 94.8 | 15.9 | 90.2 | 29.5 |
| Nc1ncn([C@H]2C[C@H](O)[C@@H](CO)O2)c(=O)n1 [decitabine] + COc1cc(N2CCC(N3CCN(C)CC3)CC2)ccc1Nc1ncc(Cl)c(Nc2ccccc2S(=O)(=O)C(C)C)n1 [NVP-TAE684] (first compound 0.1 µM, partner dose 0.08 µM) | 109 | 139 | 36.4 | 101 | 245 | 120 | 59.7 | 83.1 | 211 | 191 | 354 | 85.9 | 189 | 84.2 | 157 | 121 |
| O=C(O)c1ccc2c(c1)nc(Nc1cccc(Cl)c1)c1ccncc12 + Cc1ccc(NC(=O)c2cccc(N(C)C)c2)cc1NC(=O)c1ccc(O)cc1 [ZM336372] (first compound 0.4 µM, partner dose 2 µM) | 96 | 91 | 217 | 123 | 54.3 | 140 | 86.4 | 60.2 | 161 | 137 | 123 | 171 | 112 | 72.2 | 111 | 169 |
| CS(=O)(=O)CCNCc1ccc(-c2ccc3ncnc(Nc4ccc(OCc5cccc(F)c5)c(Cl)c4)c3c2)o1 [lapatinib] + Oc1cc(-c2nc(-c3ccccc3)[nH]c2-c2ccncc2)ccc1Cl [L779450] (first compound 0.8 µM, partner dose 0.2 µM) | 166 | 20.6 | 62.6 | 60.3 | 134 | 38.6 | 39.5 | 71.7 | 106 | 97.6 | 124 | 65 | 95.6 | 47.3 | 123 | 128 |
| O=C(O)[C@@H]1[O][Sb](=[O])([O][Sb]2(=[O])[O][C@H]([C@H](O)CO)[C@H](O)[C@H](C(=O)O)[O]2)[O][C@H]([C@H](O)CO)[C@@H]1O (stereo partly drawn) [stibogluconate] + O=C(Nc1ccccc1)c1cc([N+](=O)[O-])ccc1Cl [GW9662] (first compound 2 µM, partner dose 2 µM) | 93.9 | 111 | 56.7 | 145 | 92.2 | 77.5 | 24.3 | 67.8 | 157 | 49.5 | 187 | 201 | 88.1 | 58.4 | 103 | 70.3 |
| CNC(=O)c1cc(Oc2ccc(NC(=O)Nc3ccc(Cl)c(C(F)(F)F)c3)cc2)ccn1 [sorafenib] + O=C(Nc1cccc(Cl)c1)Nc1ncc(CCNc2ncnc3ccsc23)s1 [SNS314] (first compound 0.4 µM, partner dose 0.0008 µM) | 191 | 37 | 50 | 37.9 | 64.6 | 74.5 | 63.4 | 76.6 | 87.9 | 149 | 295 | 63.8 | 100 | 57.3 | 97 | 238 |
| Nc1ccn([C@@H]2O[C@H](CO)[C@@H](O)C2(F)F)c(=O)n1 [gemcitabine] + COc1cc2c(Oc3ccc4[nH]c(C)cc4c3F)ncnc2cc1OCCCN1CCCC1 [cediranib] (first compound 0.0004 µM, partner dose 0.4 µM) | 64.3 | 91.7 | 65.2 | 49.2 | 271 | 126 | 69.3 | 304 | 107 | 105 | 55.1 | 184 | 164 | 58.4 | 117 | 147 |
| CS(=O)(=O)CCNCc1ccc(-c2ccc3ncnc(Nc4ccc(OCc5cccc(F)c5)c(Cl)c4)c3c2)o1 [lapatinib] + O=S(=O)(c1ccccc1)N(CC(F)(F)F)c1ccc(C(O)(C(F)(F)F)C(F)(F)F)cc1 [T0901317] (first compound 0.8 µM, partner dose 1.4 µM) | 127 | 69.3 | 92.5 | 123 | 94.4 | 106 | 195 | 113 | 119 | 133 | 31.4 | 58.2 | 94.4 | 79.9 | 103 | 173 |
| CCCS(=O)(=O)Nc1ccc(F)c(C(=O)c2c[nH]c3ncc(Cl)cc23)c1F + CN(NC(=O)CC(=O)NN(C)C(=S)c1ccccc1)C(=S)c1ccccc1 [STA4783] (first compound 0.08 µM, partner dose 0.006 µM) | 122 | 114 | 29.1 | 66.6 | 240 | 40.3 | 299 | 117 | 247 | 495 | 303 | 150 | 206 | 126 | 207 | 73.4 |
| Cc1cc(Nc2cc(N3CCN(C)CC3)nc(/C=C/c3ccccc3)n2)n[nH]1 + O=C(Nc1cccc(Cl)c1)Nc1ncc(CCNc2ncnc3ccsc23)s1 [SNS314] (first compound 0.04 µM, partner dose 0.0008 µM) | 66.9 | 150 | 53.3 | 85.3 | 76.7 | 116 | 72 | 72.1 | 141 | 28.3 | 154 | 178 | 107 | 63.9 | 83 | 87.4 |
| CC(C)C[C@H](NC(=O)[C@H](Cc1ccccc1)NC(=O)c1cnccn1)B(O)O [Bortezomib] + COC(=O)c1sccc1S(=O)(=O)Nc1ccc(Nc2ccccc2)cc1OC [GSK0660] (first compound 0.001 µM, partner dose 1 µM) | 125 | 156 | 119 | 49.7 | 163 | 96.4 | 48.7 | 74.5 | 257 | 181 | 137 | 237 | 160 | 219 | 1460 | 35.7 |
| O=C(O)[C@@H]1[O][Sb](=[O])([O][Sb]2(=[O])[O][C@H]([C@H](O)CO)[C@H](O)[C@H](C(=O)O)[O]2)[O][C@H]([C@H](O)CO)[C@@H]1O (stereo partly drawn) [stibogluconate] + CCN(CC)CCCCNc1ncc2cc(-c3cc(OC)cc(OC)c3)c(NC(=O)NC(C)(C)C)nc2n1 [PD173074] (first compound 2 µM, partner dose 0.1 µM) | 83.1 | 27.5 | 92.2 | 145 | 106 | 82.3 | 65.5 | 70.7 | 79.8 | 173 | 61.5 | 79.6 | 88.3 | 74.3 | 84.8 | 125 |
| CC(C)C[C@H](NC(=O)[C@H](Cc1ccccc1)NC(=O)c1cnccn1)B(O)O [Bortezomib] + Cc1cc(N2CCOCC2)cc2[nH]c(-c3c(NC[C@@H](O)c4cccc(Cl)c4)cc[nH]c3=O)nc12 [BMS536924] (first compound 0.001 µM, partner dose 0.2 µM) | 185 | 121 | 92.6 | 201 | 74.7 | 52.2 | 87.9 | 288 | 147 | 184 | 59.9 | 688 | 191 | 64.1 | 650 | 70.5 |
| Nc1nc(F)nc2c1ncn2[C@@H]1O[C@H](CO)[C@@H](O)[C@@H]1O [fludarabine] + OCCn1cc(-c2cnc3nnn(Cc4ccc5ncccc5c4)c3n2)cn1 [PF04217903] (first compound 0.2 µM, partner dose 1 µM) | 90 | 762 | 75.3 | 94 | 76.3 | 1280 | 365 | 998 | 542 | 277 | 185 | 170 | 97.5 | 327 | 110 | 430 |
| CCCS(=O)(=O)Nc1ccc(F)c(C(=O)c2c[nH]c3ncc(Cl)cc23)c1F + O=C(O)c1ccc(-c2c[nH]c3ncc(-c4ccccc4)cc23)cc1C1CCCC1 [GSK650394] (first compound 0.08 µM, partner dose 0.16 µM) | 39.6 | 160 | 66.5 | 73.5 | 138 | 114 | 71.3 | 28.9 | 203 | 128 | 139 | 123 | 108 | 115 | 139 | 118 |
| CS(=O)(=O)CCNCc1ccc(-c2ccc3ncnc(Nc4ccc(OCc5cccc(F)c5)c(Cl)c4)c3c2)o1 [lapatinib] + CCCCCCCCCCCC1=C(O)C(=O)C=C(O)C1=O [Embelin] (first compound 0.8 µM, partner dose 1.2 µM) | 60.2 | 36.9 | 34.7 | 93.9 | 218 | 114 | 168 | 74.1 | 175 | 113 | 76.4 | 33.1 | 89.6 | 77.2 | 96.7 | 33.2 |
| O=C(O)c1ccc2c(c1)nc(Nc1cccc(Cl)c1)c1ccncc12 + COC(=O)c1sccc1S(=O)(=O)Nc1ccc(Nc2ccccc2)cc1OC [GSK0660] (first compound 0.4 µM, partner dose 1 µM) | 59.7 | 82.6 | 73.1 | 103 | 101 | 122 | 78.7 | 61.2 | 203 | 62.3 | 186 | 153 | 105 | 81.8 | 83.8 | 89.5 |

Taken from above (4 entries):

| SMILES | cleaved PARP positive nuclei fraction (MZ2-MEL) [%] | cleaved PARP positive nuclei fraction (MeWo) [%] | cleaved PARP positive nuclei fraction (RPMI7951) [%] | cleaved PARP positive nuclei fraction (RVH-421) [%] | cleaved PARP positive nuclei fraction (SkMel28) [%] | cleaved PARP positive nuclei fraction (SkMel2) [%] | cleaved PARP positive nuclei fraction (SkMel30) [%] | cleaved PARP positive nuclei fraction (SkMel5) [%] | cleaved PARP positive nuclei fraction (UACC257) [%] | cleaved PARP positive nuclei fraction (UACC62) [%] | cleaved PARP positive nuclei fraction (WM115) [%] | cleaved PARP positive nuclei fraction (WM1716) [%] | cleaved PARP positive nuclei fraction (WM1745) [%] | cleaved PARP positive nuclei fraction (WM3526) [%] | cleaved PARP positive nuclei fraction (WM3619) [%] | cleaved PARP positive nuclei fraction (WM451Lu) [%] |
| --- | --- | --- | --- | --- | --- | --- | --- | --- | --- | --- | --- | --- | --- | --- | --- | --- |
| CNC(=O)c1cc(Oc2ccc(NC(=O)Nc3ccc(Cl)c(C(F)(F)F)c3)cc2)ccn1 [sorafenib] + O=C(Nc1cccc(Cl)c1)Nc1ncc(CCNc2ncnc3ccsc23)s1 [SNS314] (first compound 0.4 µM, partner dose 0.0008 µM) | 191 | 37 | 50 | 37.9 | 64.6 | 74.5 | 63.4 | 76.6 | 87.9 | 149 | 295 | 63.8 | 100 | 57.3 | 97 | 238 |
| Nc1ccn([C@@H]2O[C@H](CO)[C@@H](O)C2(F)F)c(=O)n1 [gemcitabine] + COc1cc2c(Oc3ccc4[nH]c(C)cc4c3F)ncnc2cc1OCCCN1CCCC1 [cediranib] (first compound 0.0004 µM, partner dose 0.4 µM) | 64.3 | 91.7 | 65.2 | 49.2 | 271 | 126 | 69.3 | 304 | 107 | 105 | 55.1 | 184 | 164 | 58.4 | 117 | 147 |
| CS(=O)(=O)CCNCc1ccc(-c2ccc3ncnc(Nc4ccc(OCc5cccc(F)c5)c(Cl)c4)c3c2)o1 [lapatinib] + O=S(=O)(c1ccccc1)N(CC(F)(F)F)c1ccc(C(O)(C(F)(F)F)C(F)(F)F)cc1 [T0901317] (first compound 0.8 µM, partner dose 1.4 µM) | 127 | 69.3 | 92.5 | 123 | 94.4 | 106 | 195 | 113 | 119 | 133 | 31.4 | 58.2 | 94.4 | 79.9 | 103 | 173 |
| CCCS(=O)(=O)Nc1ccc(F)c(C(=O)c2c[nH]c3ncc(Cl)cc23)c1F + CN(NC(=O)CC(=O)NN(C)C(=S)c1ccccc1)C(=S)c1ccccc1 [STA4783] (first compound 0.08 µM, partner dose 0.006 µM) | 122 | 114 | 29.1 | 66.6 | 240 | 40.3 | 299 | 117 | 247 | 495 | 303 | 150 | 206 | 126 | 207 | 73.4 |
